Consider 50 sequences from the supplement of paper PMC7877785.

This series can be described thus: self-splicing fitness, log relative to wild type (ln ratio); higher = more splicing; Tetrahymena group I intron in knt gene, E. coli kanamycin selection, DiMSum; sequences stand for … in CUCUCU…GGAGGGAAAAGUUAUCAGGCAUGCACCUGGUAGCUAGUCUUUAAACCAAUAGAUUGCAUCGGUUUAAAAGGCAAGACCGUCAAAUUGCGGGAAAGGGGUCAACAGCCGUUCAGUACCAAGUCUCAGGGGAAACUUUGAGAUGGCCUUGCAAAGGGUAUGGUAAUAAGCUGACGGACAUGGUCCUAACCACGCAGCCAAGUCCUAAGUCAACAGAUCUUCUGUUGAUAUGGAUGCAGUUCACAGACUAAAUGUCGGUCGGGGAAGAUGUAUUCUUCUCAUAAGAUAUAGUCGGACCUCUCCUUAAUGGGAGCUAGCGGAUGAAGUGAUGCAACACUGGAGCCGCUGGGAACUAAUUUGUAUGCGAAAGUAUAUUGAUUAGUUUUGGAGUACUCGUGGUCG
In short, it runs like this: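 Pooled colonies went to amplicon sequencing on an Illumina HiSeq 2500 after six replicate transformations. The plates were LB agar with 100 μg/mL carbenicillin, 50 μM IPTG and 0.2% rhamnose, with or without 25 μg/mL kanamycin, incubated overnight at 37°C or 30°C. The E. coli BL21(DE3) library had all eight P1ex-region intron nucleotides randomised, the intron placed in the knt kanamycin-resistance gene on pET-22b(+). DiMSum fitness is the error-weighted combination of replicate fold changes, kanamycin against none, normalised to wild type.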

± gives the uncertainty stated by the source. Many of these values have a large error.

On to CCAGAGCAAUAUUACGCCGG, for which the “self-splicing fitness (ln)” value is -3.48 ± 0.6 (30 °C) and -3.04 ± 0.74 (37 °C).

As to CUCCAGCAAUAUUACGUCCC, the “self-splicing fitness (ln)” value (37 °C) was -2.3 ± 1.1. Same read-out and setting: for UCUGAGCAAUAUUACGCAGC the value was -1.69 ± 0.67. Regarding AAAUAGCAAUAUUACGCCGC, under “30 °C”, the “self-splicing fitness (ln)” value is -2.99 ± 0.56. For UCAGAGCAAUAUUACGACCG, the “self-splicing fitness (ln)” value by setting is: (30 °C) -3.48 ± 1.1; (37 °C) -1.37 ± 1.2. With UGGGAGCAAUAUUACGCACG, the “self-splicing fitness (ln)” value (37 °C) amounted to 0.212 ± 0.56. Turning to UGCGAGCAAUAUUACGCGAU, the “self-splicing fitness (ln)” value (37 °C) is -2.22 ± 0.67. On to CUGUAGCAAUAUUACGGAGA, for which the “self-splicing fitness (ln)” value (30 °C) was -2.5 ± 0.21 and the “self-splicing fitness (ln)” value (37 °C) is -3.56 ± 0.34.

With CUAGAGCAAUAUUACGGCUC, the “self-splicing fitness (ln)” value (37 °C) is -1.98 ± 0.51.

With UAAUAGCAAUAUUACGCAGA, where the note is “30 °C”, the “self-splicing fitness (ln)” value was -2.85 ± 0.64.

CUGGAGCAAUAUUACGUCGU: the “self-splicing fitness (ln)” value (30 °C) was -3.88 ± 0.23 and the “self-splicing fitness (ln)” value (37 °C) is -2.39 ± 0.22. Turning to UACUAGCAAUAUUACGAGAC, the “self-splicing fitness (ln)” value (30 °C) was -4.7 ± 0.73.

Regarding UACUAGCAAUAUUACGUCCC, the “self-splicing fitness (ln)” value runs as follows: (30 °C) -2.13 ± 0.52; (37 °C) -1.48 ± 0.56. For AGUGAGCAAUAUUACGCCAA the same measures were -3.85 ± 0.52 and -0.938 ± 0.57. For the sequence CCUGAGCAAUAUUACGAUUC, the “self-splicing fitness (ln)” value (37 °C) was -3.74 ± 0.73. For UGCUAGCAAUAUUACGCUGC, the “self-splicing fitness (ln)” value runs as follows: (30 °C) -2.25 ± 1.1; (37 °C) -1.56 ± 0.7. For UUCCAGCAAUAUUACGGUAA the same measures were -0.236 ± 0.087 and -0.0663 ± 0.086. Take GUAGAGCAAUAUUACGUGCC: for the setting “30 °C”, the “self-splicing fitness (ln)” value is -4.4 ± 1. With UGCGAGCAAUAUUACGAAUU, the “self-splicing fitness (ln)” value by setting is: (30 °C) -1.78 ± 0.61; (37 °C) -2.43 ± 1.1.

For GCGUAGCAAUAUUACGAAAG, the “self-splicing fitness (ln)” value (37 °C) is -2.3 ± 1.1. As for GUGGAGCAAUAUUACGAGUG, the “self-splicing fitness (ln)” value (30 °C) was -3.29 ± 0.53. The same measure, in the same setting: for CCGUAGCAAUAUUACGACGG the value was -4.22 ± 0.72; for UGAGAGCAAUAUUACGUUGG, -4.35 ± 0.51. Take GGCAAGCAAUAUUACGAGGC: the “self-splicing fitness (ln)” value (37 °C) is -1.92 ± 0.58. With UCUGAGCAAUAUUACGAAAA, the “self-splicing fitness (ln)” value (30 °C) is -2.44 ± 0.78. Take CGAGAGCAAUAUUACGAUCU: the “self-splicing fitness (ln)” value (37 °C) is -1.18 ± 0.56.

As for UGAGAGCAAUAUUACGGAGA, the “self-splicing fitness (ln)” value (30 °C) is -2.16 ± 0.65 and the “self-splicing fitness (ln)” value (37 °C) was -2.48 ± 1.1. For CUAGAGCAAUAUUACGUCCU the same measures were -3.61 ± 0.63 and -1.43 ± 0.61. As to UUAGAGCAAUAUUACGGGGC, the “self-splicing fitness (ln)” value (37 °C) is -2.64 ± 1.1.

As to GUGCAGCAAUAUUACGCAUU, the “self-splicing fitness (ln)” value (30 °C) is -3.59 ± 0.52. Turning to CUUGAGCAAUAUUACGGGCC, under “30 °C”, the “self-splicing fitness (ln)” value was -3.31 ± 0.74. For the sequence UCGUAGCAAUAUUACGUUCC, the “self-splicing fitness (ln)” value by setting is: (30 °C) -4.04 ± 1.1; (37 °C) -1.6 ± 0.84.

For the sequence CGUGAGCAAUAUUACGCCAU, the “self-splicing fitness (ln)” value (37 °C) was -2.48 ± 1.1.

As for GGAGAGCAAUAUUACGCCAA, the “self-splicing fitness (ln)” value (37 °C) was -3.67 ± 0.73. Still for that read-out and setting: to CUGAAGCAAUAUUACGCUGC belongs -2.32 ± 0.55; to CCUAAGCAAUAUUACGGAGC, -3.14 ± 0.6. For the sequence CGCCAGCAAUAUUACGGUUC, the “self-splicing fitness (ln)” value (30 °C) was -2.29 ± 0.11 and the “self-splicing fitness (ln)” value (37 °C) was -1.54 ± 0.11. Consider GGGGAGCAAUAUUACGACCU, for which the “self-splicing fitness (ln)” value runs as follows: (30 °C) -2.44 ± 1.1; (37 °C) -0.503 ± 0.56. For UCUCAGCAAUAUUACGGCCC the same measures were -2.82 ± 0.76 and -2.47 ± 1.1. As for AGCGAGCAAUAUUACGCAGG, for the setting “37 °C”, the “self-splicing fitness (ln)” value is -2.89 ± 0.53.

On to GCAAAGCAAUAUUACGAUCA, for which the “self-splicing fitness (ln)” value is, setting by setting: (30 °C) -1.4 ± 0.12; (37 °C) -0.882 ± 0.11. Take CGUAAGCAAUAUUACGCGCC: the “self-splicing fitness (ln)” value (30 °C) was -3.76 ± 0.54.

For the sequence CUGGAGCAAUAUUACGCCGA, under “37 °C”, the “self-splicing fitness (ln)” value is -2.8 ± 1. Regarding UCAGAGCAAUAUUACGUCAC, the “self-splicing fitness (ln)” value (37 °C) was -2.86 ± 0.75. As to AUCAAGCAAUAUUACGGGUC, the “self-splicing fitness (ln)” value is, setting by setting: (30 °C) -3.33 ± 0.29; (37 °C) -2.19 ± 0.27.

Consider CCGGAGCAAUAUUACGGCCC, for which the “self-splicing fitness (ln)” value (30 °C) is -1.54 ± 0.82.

As for UAAUAGCAAUAUUACGAUGC, where the note is “37 °C”, the “self-splicing fitness (ln)” value was -2.33 ± 0.57.

Regarding UCGCAGCAAUAUUACGCGGA, where the note is “30 °C”, the “self-splicing fitness (ln)” value is -3.38 ± 0.61. The same measure, in the same setting: for CGGUAGCAAUAUUACGAAAC the value was -4.42 ± 0.59. In the case of CUGCAGCAAUAUUACGACCU, the “self-splicing fitness (ln)” value is, setting by setting: (30 °C) -2.84 ± 0.53; (37 °C) -1.73 ± 0.54.
